In PMC11077363:
No constants are given. Whether binding was seen depends on the method and setting. In cells and extracts the contact can be indirect. Some results given as binding are weak or reduced against the parent protein; the word gives no strength.

Protein sequences, listed by entry. Tags and fused reporters are not part of them. Residues count along the entry.
UniProt Q99836: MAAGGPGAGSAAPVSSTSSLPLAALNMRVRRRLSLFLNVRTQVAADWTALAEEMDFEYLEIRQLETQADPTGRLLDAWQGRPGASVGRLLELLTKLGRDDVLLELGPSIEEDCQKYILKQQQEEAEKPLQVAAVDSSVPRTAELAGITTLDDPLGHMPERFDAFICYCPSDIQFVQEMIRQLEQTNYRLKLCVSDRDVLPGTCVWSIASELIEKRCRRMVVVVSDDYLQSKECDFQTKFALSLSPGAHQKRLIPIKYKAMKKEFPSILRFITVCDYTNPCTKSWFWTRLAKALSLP
UniProt Q9Y4L5: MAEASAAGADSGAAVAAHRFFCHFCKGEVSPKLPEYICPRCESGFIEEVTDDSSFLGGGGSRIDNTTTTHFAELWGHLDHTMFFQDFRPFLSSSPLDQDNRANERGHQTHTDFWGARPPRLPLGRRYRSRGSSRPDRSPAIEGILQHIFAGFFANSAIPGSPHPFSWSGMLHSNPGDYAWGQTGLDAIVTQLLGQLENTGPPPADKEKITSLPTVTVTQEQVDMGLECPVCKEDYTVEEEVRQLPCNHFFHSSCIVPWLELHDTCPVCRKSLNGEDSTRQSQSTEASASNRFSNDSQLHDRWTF
UniProt P51617: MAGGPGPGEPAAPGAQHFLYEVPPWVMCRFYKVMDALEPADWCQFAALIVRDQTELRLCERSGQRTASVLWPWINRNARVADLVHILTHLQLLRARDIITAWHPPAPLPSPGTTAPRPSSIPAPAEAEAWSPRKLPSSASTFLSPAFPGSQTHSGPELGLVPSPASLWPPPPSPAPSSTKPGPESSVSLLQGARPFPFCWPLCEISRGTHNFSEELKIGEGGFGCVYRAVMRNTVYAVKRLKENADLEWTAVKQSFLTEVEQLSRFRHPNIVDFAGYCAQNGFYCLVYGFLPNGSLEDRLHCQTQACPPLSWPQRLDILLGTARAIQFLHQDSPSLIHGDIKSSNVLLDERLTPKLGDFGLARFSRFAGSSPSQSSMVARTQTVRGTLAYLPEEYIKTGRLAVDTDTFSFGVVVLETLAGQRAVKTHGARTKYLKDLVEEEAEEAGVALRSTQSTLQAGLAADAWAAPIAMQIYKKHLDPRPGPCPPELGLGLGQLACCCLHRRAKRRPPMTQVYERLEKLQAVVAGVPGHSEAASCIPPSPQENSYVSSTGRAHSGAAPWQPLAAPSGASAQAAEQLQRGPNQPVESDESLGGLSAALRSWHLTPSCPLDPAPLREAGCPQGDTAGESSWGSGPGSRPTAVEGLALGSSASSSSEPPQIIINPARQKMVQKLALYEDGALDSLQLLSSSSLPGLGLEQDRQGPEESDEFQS
UniProt O00206, residues 24-839: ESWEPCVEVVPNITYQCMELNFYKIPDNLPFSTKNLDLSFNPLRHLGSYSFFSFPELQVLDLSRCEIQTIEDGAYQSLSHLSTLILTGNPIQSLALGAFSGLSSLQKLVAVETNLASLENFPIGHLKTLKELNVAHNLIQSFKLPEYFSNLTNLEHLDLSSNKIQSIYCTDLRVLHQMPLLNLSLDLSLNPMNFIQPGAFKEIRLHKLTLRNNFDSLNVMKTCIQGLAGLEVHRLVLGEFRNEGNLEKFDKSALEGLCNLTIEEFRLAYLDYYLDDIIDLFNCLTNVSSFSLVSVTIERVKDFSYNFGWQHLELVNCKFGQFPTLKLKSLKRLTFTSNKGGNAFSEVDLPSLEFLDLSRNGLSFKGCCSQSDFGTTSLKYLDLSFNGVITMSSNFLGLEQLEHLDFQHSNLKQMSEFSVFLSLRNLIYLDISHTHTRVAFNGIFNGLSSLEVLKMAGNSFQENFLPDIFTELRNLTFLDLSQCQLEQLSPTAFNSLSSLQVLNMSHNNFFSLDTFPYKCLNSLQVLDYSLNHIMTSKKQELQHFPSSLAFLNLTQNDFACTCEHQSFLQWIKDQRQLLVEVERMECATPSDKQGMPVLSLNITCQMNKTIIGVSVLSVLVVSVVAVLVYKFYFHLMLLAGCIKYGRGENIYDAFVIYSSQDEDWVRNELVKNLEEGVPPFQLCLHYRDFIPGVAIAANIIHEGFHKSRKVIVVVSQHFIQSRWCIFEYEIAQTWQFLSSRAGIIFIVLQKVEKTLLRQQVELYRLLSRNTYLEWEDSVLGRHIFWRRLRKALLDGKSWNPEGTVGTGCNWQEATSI

How the values were obtained:
[1] = target: endogenous MyD88 (human (endogenous in HCC1806)) (UniProt Q99836); assay: co-IP; endogenous proteins in HCC1806 lysate; MyD88 antibody or BCA2 antibody overnight at 4 °C, Protein A/G beads 2 hours; Western blot; also in cells with BCA2 knockout or BCA2 overexpression, and after LPS (500 ng/ml) for 0-30 minutes
[2] = target: MyD88 expressed in HEK293T for Figure 4K (UniProt Q99836); assay: co-IP; HEK293T transfected with the indicated plasmids, with overexpression of BCA2; coimmunoprecipitation and immunoblot
[3] = target: endogenous BCA2 (human (endogenous in HCC1806)) (UniProt Q9Y4L5); assay: co-IP; endogenous proteins in HCC1806 lysate; MyD88 antibody or BCA2 antibody overnight at 4 °C, Protein A/G beads 2 hours; Western blot; also in cells with BCA2 knockout or BCA2 overexpression, and after LPS (500 ng/ml) for 0-30 minutes

“IRAK1 (endogenous) (from UniProt P51617 1-712) (enzyme)” was tested, and the binding [1] was “binds”.

In the case of “TLR4 expressed in HEK293T for Figure 4K (from UniProt O00206 24-839) (receptor)”, the binding [2] is reported as “binds”.

For “endogenous TLR4 (from UniProt O00206 24-839) (receptor)”, the binding [3] was “binds” and the binding [1] was “binds”.
